The values that follow come from US20170022254 (published 2017).

A short description of the data set: general procedure: hybrid (solid and solution phase) peptide synthesis; 2-chlorotrityl resin; HATU/DIPEA; DICI/Oxyma; MSNT/NMI. As to conditions: whole synthesis.

For the substance “(2S,5S,8S,9R,12S,15S,18S,19S)-2-(2-(1,3-dioxolan-2-yl)ethyl)-18-amino-15-(4-(tert-butoxy)benzyl)-12-((S)-sec-butyl)-5-isobutyl-8-((S)-2-isobutyramido-5-oxo-5-(tritylamino)pentanamido)-9,16,19-trimethyl-4,7,11,14,17-pentaoxo-10-oxa-3,6,13,1”, for the setting “scale 5.0 mmol”, the crude mass turned out to be 9.6 g.
In the case of “(4S)-2-(2-((3S,6S,9S,12S,15S,18S,19R)-6-(4-(tert-butoxy)benzyl)-3,9-di((S)-sec-butyl)-15-isobutyl-18-((S)-2-isobutyramido-5-oxo-5-(tritylamino)pentanamido)-7,19-dimethyl-2,5,8,11,14,17-hexaoxo-1-oxa-4,7,10,13,16-pentaazacyclononadecan-12-yl)ethyl)-1,3-dioxolane-4-carboxylic acid”, the crude mass (scale 5.0 mmols) is listed as 2.6 g.
